## Results from one PubChem assay

From PubChem BioAssay record AID504749 (NCATS, 2011).

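Malaria parasite (P. falciparum) lines kept in red blood cells; parasite DNA is measured by SYBR Green fluorescence after lysis, 72 h after compound addition.
Each compound was titrated across a series from about 0.000037 to 29 µM.
The number is the fitted AC50, the concentration giving a half-maximal change in signal; a lower value means higher potency, whether the curve shows a decrease or an increase.
Calls follow the curve class and fit quality: every row here is inconclusive, covering signal-raising curves and weak, poorly fitted, partial or highest-dose-only inhibition curves.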

Values are in nM.
Every entry below has the call inconclusive.
Only part of the assay is shown, chiefly results filed as inconclusive.
Potencies fitted to partial, single-point or poorly fitting curves are rough.

{"compound": "CC(=O)OC1C[C@H](O[C@@H]2C(O)C[C@H](O[C@@H]3C(O)C[C@@H](OC4CC[C@]5(C)C(CCC6C5CC(O)[C@@]5(C)C(C7=CC(=O)OC7)CC[C@@]65O)C4)OC3C)OC2C)O[C@H](C)[C@H]1O[C@H]1OC(CO)C(O)C(O)C1O", "stereo": "some centres undefined", "setting": "ATS189", "potency (nM)": "11220", "curve as filed": "inhibitor, single point"}
{"compound": "CC(=O)OC1C[C@H](O[C@@H]2C(O)C[C@H](O[C@@H]3C(O)C[C@@H](OC4CC[C@]5(C)C(CCC6C5CC(O)[C@@]5(C)C(C7=CC(=O)OC7)CC[C@@]65O)C4)OC3C)OC2C)O[C@H](C)[C@H]1O[C@H]1OC(CO)C(O)C(O)C1O", "stereo": "some centres undefined", "setting": "PC26", "potency (nM)": "674.6", "curve as filed": "inhibitor, partial curve"}
{"compound": "CC(=O)OC1C[C@H](O[C@@H]2C(O)C[C@H](O[C@@H]3C(O)C[C@@H](OC4CC[C@]5(C)C(CCC6C5CC(O)[C@@]5(C)C(C7=CC(=O)OC7)CC[C@@]65O)C4)OC3C)OC2C)O[C@H](C)[C@H]1O[C@H]1OC(CO)C(O)C(O)C1O", "stereo": "some centres undefined", "setting": "DIV14", "potency (nM)": "15101", "curve as filed": "inhibitor, single point"}
{"compound": "CC(=O)OC1C[C@H](O[C@@H]2C(O)C[C@H](O[C@@H]3C(O)C[C@@H](OC4CC[C@]5(C)C(CCC6C5CC(O)[C@@]5(C)C(C7=CC(=O)OC7)CC[C@@]65O)C4)OC3C)OC2C)O[C@H](C)[C@H]1O[C@H]1OC(CO)C(O)C(O)C1O", "stereo": "some centres undefined", "setting": "TAB109", "potency (nM)": "14125", "curve as filed": "inhibitor, single point"}
{"compound": "CC(=O)OC1C[C@H](O[C@@H]2C(O)C[C@H](O[C@@H]3C(O)C[C@@H](OC4CC[C@]5(C)C(CCC6C5CC(O)[C@@]5(C)C(C7=CC(=O)OC7)CC[C@@]65O)C4)OC3C)OC2C)O[C@H](C)[C@H]1O[C@H]1OC(CO)C(O)C(O)C1O", "stereo": "some centres undefined", "setting": "CP335", "potency (nM)": "11995", "curve as filed": "inhibitor, partial curve, poor fit"}
{"compound": "CC(=O)OC1C[C@H](O[C@@H]2C(O)C[C@H](O[C@@H]3C(O)C[C@@H](OC4CC[C@]5(C)C(CCC6C5CC(O)[C@@]5(C)C(C7=CC(=O)OC7)CC[C@@]65O)C4)OC3C)OC2C)O[C@H](C)[C@H]1O[C@H]1OC(CO)C(O)C(O)C1O", "stereo": "some centres undefined", "setting": "PAD", "potency (nM)": "14125", "curve as filed": "inhibitor, single point"}
{"compound": "CC(=O)OC1C[C@H](O[C@@H]2C(O)C[C@H](O[C@@H]3C(O)C[C@@H](OC4CC[C@]5(C)C(CCC6C5CC(O)[C@@]5(C)C(C7=CC(=O)OC7)CC[C@@]65O)C4)OC3C)OC2C)O[C@H](C)[C@H]1O[C@H]1OC(CO)C(O)C(O)C1O", "stereo": "some centres undefined", "setting": "CP265", "potency (nM)": "11220", "curve as filed": "inhibitor, single point"}
{"compound": "CC(=O)OC1C[C@H](O[C@@H]2C(O)C[C@H](O[C@@H]3C(O)C[C@@H](OC4CC[C@]5(C)C(CCC6C5CC(O)[C@@]5(C)C(C7=CC(=O)OC7)CC[C@@]65O)C4)OC3C)OC2C)O[C@H](C)[C@H]1O[C@H]1OC(CO)C(O)C(O)C1O", "stereo": "some centres undefined", "setting": "TAB165", "potency (nM)": "17782", "curve as filed": "inhibitor, single point"}
{"compound": "CC(=O)OC1C[C@H](O[C@@H]2C(O)C[C@H](O[C@@H]3C(O)C[C@@H](OC4CC[C@]5(C)C(CCC6C5CC(O)[C@@]5(C)C(C7=CC(=O)OC7)CC[C@@]65O)C4)OC3C)OC2C)O[C@H](C)[C@H]1O[C@H]1OC(CO)C(O)C(O)C1O", "stereo": "some centres undefined", "setting": "GB4", "potency (nM)": "15101", "curve as filed": "inhibitor, single point"}
{"compound": "CC(=O)OCC(=O)[C@@]12OC3(CCCC3)OC1CC1C3CCC4=CC(=O)C=C[C@@]4(C)[C@]3(F)C(O)C[C@]12C", "stereo": "some centres undefined", "setting": "DIV30", "potency (nM)": "9528", "curve as filed": "inhibitor, partial curve"}
{"compound": "CC(=O)OCC(=O)[C@@]12OC3(CCCC3)OC1CC1C3CCC4=CC(=O)C=C[C@@]4(C)[C@]3(F)C(O)C[C@]12C", "stereo": "some centres undefined", "setting": "P93_24", "potency (nM)": "11220", "curve as filed": "inhibitor, single point"}
{"compound": "CC(=O)OCC(=O)[C@@]12OC3(CCCC3)OC1CC1C3CCC4=CC(=O)C=C[C@@]4(C)[C@]3(F)C(O)C[C@]12C", "stereo": "some centres undefined", "setting": "TAB165", "potency (nM)": "12589", "curve as filed": "inhibitor, single point"}
{"compound": "CC(=O)OCC(=O)[C@@]12OC3(CCCC3)OC1CC1C3CCC4=CC(=O)C=C[C@@]4(C)[C@]3(F)C(O)C[C@]12C", "stereo": "some centres undefined", "setting": "CP217", "potency (nM)": "11220", "curve as filed": "inhibitor, single point"}
{"compound": "CC(=O)OCC(=O)[C@@]12OC3(CCCC3)OC1CC1C3CCC4=CC(=O)C=C[C@@]4(C)[C@]3(F)C(O)C[C@]12C", "stereo": "some centres undefined", "setting": "ECU", "potency (nM)": "17782", "curve as filed": "inhibitor, single point"}
{"compound": "CC(=O)OCC(=O)[C@@]12OC3(CCCC3)OC1CC1C3CCC4=CC(=O)C=C[C@@]4(C)[C@]3(F)C(O)C[C@]12C", "stereo": "some centres undefined", "setting": "DFO2036", "potency (nM)": "17782", "curve as filed": "inhibitor, single point"}
{"compound": "CC(=O)OCC(=O)[C@@]12OC3(CCCC3)OC1CC1C3CCC4=CC(=O)C=C[C@@]4(C)[C@]3(F)C(O)C[C@]12C", "stereo": "some centres undefined", "setting": "DIV17", "potency (nM)": "19011", "curve as filed": "inhibitor, single point"}
{"compound": "CC(=O)OCC(=O)[C@@]12OC3(CCCC3)OC1CC1C3CCC4=CC(=O)C=C[C@@]4(C)[C@]3(F)C(O)C[C@]12C", "stereo": "some centres undefined", "setting": "CP191", "potency (nM)": "12589", "curve as filed": "inhibitor, single point"}
{"compound": "CC(=O)OCC(=O)[C@@]12OC3(CCCC3)OC1CC1C3CCC4=CC(=O)C=C[C@@]4(C)[C@]3(F)C(O)C[C@]12C", "stereo": "some centres undefined", "setting": "HB3", "potency (nM)": "10000", "curve as filed": "inhibitor, single point"}
{"compound": "CC(=O)OCC(=O)[C@@]12OC3(CCCC3)OC1CC1C3CCC4=CC(=O)C=C[C@@]4(C)[C@]3(F)C(O)C[C@]12C", "stereo": "some centres undefined", "setting": "AA1029", "potency (nM)": "10000", "curve as filed": "inhibitor, single point"}

The first 2 entries again:

* CC(=O)OC1C[C@H](O[C@@H]2C(O)C[C@H](O[C@@H]3C(O)C[C@@H](OC4CC[C@]5(C)C(CCC6C5CC(O)[C@@]5(C)C(C7=CC(=O)OC7)CC[C@@]65O)C4)OC3C)OC2C)O[C@H](C)[C@H]1O[C@H]1OC(CO)C(O)C(O)C1O (some centres undefined) [ATS189] | potency 11220 nM (inhibitor, single point)
* CC(=O)OC1C[C@H](O[C@@H]2C(O)C[C@H](O[C@@H]3C(O)C[C@@H](OC4CC[C@]5(C)C(CCC6C5CC(O)[C@@]5(C)C(C7=CC(=O)OC7)CC[C@@]65O)C4)OC3C)OC2C)O[C@H](C)[C@H]1O[C@H]1OC(CO)C(O)C(O)C1O (some centres undefined) [PC26] | potency 674.6 nM (inhibitor, partial curve)